Assay results reported in the supplement of paper PMC12823440, “Inhibitors supercharge kinase turnover through native proteolytic circuits” (Nature, 2025).
Where a name gives a salt, the structure may show the parent alone. Some of the results follow. Hit calls seldom repeat between salt and free forms of one compound.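 Kinases, fused to nanoluciferase, were expressed in K562 cells; luminescence was measured every 4 h from 2 to 18 h as percent of control (DMSO = 100%, positive control = 0%). A time point is decreased if signal falls significantly (2 sigma). Hits were called by the authors by a rule that is not shown; the count of time points alone does not decide it.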

The chains behind the UniProt entries cited, without tags or fusion partners. Where a name states a change or a piece, a line headed by the entry shows the natural chain unless it says otherwise.
UniProt Q9Y616: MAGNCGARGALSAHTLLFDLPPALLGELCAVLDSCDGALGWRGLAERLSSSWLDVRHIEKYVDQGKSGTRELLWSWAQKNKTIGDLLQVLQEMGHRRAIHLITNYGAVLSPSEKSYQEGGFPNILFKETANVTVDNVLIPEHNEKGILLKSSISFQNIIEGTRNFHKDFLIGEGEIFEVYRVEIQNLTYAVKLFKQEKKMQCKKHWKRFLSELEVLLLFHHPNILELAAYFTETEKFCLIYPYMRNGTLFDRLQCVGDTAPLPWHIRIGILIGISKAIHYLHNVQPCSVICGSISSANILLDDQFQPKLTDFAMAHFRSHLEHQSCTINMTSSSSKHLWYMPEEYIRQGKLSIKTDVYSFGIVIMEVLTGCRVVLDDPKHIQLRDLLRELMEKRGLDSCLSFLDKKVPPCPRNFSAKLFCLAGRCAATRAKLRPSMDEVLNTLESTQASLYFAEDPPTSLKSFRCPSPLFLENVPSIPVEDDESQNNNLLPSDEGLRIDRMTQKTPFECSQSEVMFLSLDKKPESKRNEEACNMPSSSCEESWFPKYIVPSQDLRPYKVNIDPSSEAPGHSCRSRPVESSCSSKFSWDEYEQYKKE
UniProt P23458: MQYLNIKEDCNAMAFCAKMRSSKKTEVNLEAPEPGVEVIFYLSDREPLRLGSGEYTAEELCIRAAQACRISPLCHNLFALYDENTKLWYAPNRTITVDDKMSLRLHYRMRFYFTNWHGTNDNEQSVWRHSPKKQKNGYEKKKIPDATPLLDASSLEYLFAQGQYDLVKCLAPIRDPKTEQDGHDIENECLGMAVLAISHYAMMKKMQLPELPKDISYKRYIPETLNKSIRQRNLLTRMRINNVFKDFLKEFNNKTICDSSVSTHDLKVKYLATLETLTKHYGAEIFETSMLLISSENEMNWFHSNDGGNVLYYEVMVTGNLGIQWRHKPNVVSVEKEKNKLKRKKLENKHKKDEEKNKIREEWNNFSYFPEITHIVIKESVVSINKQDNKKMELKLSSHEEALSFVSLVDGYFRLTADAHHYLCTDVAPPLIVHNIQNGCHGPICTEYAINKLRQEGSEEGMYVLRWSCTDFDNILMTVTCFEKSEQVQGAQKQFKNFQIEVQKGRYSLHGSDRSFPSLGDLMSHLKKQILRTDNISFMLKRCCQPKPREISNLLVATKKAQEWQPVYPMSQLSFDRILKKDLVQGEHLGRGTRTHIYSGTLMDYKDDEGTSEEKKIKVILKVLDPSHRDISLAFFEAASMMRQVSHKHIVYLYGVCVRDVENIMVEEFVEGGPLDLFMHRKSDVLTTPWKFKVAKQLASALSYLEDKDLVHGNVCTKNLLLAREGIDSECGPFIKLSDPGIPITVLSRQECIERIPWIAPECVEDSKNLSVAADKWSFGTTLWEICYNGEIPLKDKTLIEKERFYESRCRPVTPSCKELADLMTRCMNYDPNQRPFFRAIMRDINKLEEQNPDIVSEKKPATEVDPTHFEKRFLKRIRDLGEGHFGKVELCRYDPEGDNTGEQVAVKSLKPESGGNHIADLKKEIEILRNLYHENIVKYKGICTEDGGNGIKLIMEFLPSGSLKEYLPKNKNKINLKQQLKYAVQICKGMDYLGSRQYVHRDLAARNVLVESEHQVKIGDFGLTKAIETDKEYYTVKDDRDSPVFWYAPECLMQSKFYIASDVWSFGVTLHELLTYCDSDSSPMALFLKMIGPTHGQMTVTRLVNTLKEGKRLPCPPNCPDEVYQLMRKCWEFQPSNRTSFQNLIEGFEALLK
UniProt P06239: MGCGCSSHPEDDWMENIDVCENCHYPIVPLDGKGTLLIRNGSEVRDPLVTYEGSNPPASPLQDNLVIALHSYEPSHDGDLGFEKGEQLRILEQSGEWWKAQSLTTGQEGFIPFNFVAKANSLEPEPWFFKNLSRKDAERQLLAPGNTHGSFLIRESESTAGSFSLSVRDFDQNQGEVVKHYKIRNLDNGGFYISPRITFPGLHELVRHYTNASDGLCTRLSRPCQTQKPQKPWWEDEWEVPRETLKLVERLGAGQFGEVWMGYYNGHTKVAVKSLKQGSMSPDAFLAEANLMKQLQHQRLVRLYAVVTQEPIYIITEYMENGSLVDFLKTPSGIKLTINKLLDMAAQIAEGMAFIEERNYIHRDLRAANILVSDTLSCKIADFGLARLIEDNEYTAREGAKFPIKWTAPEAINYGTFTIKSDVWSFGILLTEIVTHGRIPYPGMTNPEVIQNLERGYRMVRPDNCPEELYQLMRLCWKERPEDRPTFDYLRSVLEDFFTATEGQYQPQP
UniProt P53667: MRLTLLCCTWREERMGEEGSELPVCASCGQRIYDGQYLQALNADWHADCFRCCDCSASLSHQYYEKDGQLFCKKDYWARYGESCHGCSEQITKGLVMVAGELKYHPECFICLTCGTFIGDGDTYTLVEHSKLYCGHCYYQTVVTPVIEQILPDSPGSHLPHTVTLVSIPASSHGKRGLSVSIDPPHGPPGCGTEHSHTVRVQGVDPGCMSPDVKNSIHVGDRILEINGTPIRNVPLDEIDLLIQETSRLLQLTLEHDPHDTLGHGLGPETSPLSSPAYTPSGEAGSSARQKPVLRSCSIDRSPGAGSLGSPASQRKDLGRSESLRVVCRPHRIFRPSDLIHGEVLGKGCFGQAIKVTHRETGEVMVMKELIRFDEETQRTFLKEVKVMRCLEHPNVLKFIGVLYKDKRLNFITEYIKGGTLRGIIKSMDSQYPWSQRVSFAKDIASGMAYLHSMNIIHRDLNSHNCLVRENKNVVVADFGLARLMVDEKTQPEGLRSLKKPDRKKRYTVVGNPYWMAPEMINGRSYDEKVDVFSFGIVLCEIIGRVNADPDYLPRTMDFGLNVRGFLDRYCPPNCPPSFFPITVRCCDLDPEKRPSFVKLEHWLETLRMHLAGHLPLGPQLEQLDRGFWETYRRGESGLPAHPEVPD
UniProt P53671: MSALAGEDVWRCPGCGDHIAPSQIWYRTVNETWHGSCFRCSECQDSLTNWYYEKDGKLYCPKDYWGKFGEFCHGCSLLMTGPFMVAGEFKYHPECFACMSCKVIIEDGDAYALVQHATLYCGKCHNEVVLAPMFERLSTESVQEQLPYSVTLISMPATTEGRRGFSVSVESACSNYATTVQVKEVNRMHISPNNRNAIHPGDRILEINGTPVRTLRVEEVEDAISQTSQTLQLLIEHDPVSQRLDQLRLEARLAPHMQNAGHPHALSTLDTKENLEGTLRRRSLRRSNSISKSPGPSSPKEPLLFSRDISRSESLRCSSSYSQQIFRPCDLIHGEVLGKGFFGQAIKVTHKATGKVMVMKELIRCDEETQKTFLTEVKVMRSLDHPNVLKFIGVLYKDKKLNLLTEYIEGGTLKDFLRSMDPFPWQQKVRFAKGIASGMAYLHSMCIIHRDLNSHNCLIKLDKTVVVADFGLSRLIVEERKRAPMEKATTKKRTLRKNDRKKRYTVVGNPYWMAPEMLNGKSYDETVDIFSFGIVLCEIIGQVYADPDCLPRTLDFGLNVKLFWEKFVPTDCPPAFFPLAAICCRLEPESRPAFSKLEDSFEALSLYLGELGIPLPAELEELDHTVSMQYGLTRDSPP
UniProt Q8IWU2: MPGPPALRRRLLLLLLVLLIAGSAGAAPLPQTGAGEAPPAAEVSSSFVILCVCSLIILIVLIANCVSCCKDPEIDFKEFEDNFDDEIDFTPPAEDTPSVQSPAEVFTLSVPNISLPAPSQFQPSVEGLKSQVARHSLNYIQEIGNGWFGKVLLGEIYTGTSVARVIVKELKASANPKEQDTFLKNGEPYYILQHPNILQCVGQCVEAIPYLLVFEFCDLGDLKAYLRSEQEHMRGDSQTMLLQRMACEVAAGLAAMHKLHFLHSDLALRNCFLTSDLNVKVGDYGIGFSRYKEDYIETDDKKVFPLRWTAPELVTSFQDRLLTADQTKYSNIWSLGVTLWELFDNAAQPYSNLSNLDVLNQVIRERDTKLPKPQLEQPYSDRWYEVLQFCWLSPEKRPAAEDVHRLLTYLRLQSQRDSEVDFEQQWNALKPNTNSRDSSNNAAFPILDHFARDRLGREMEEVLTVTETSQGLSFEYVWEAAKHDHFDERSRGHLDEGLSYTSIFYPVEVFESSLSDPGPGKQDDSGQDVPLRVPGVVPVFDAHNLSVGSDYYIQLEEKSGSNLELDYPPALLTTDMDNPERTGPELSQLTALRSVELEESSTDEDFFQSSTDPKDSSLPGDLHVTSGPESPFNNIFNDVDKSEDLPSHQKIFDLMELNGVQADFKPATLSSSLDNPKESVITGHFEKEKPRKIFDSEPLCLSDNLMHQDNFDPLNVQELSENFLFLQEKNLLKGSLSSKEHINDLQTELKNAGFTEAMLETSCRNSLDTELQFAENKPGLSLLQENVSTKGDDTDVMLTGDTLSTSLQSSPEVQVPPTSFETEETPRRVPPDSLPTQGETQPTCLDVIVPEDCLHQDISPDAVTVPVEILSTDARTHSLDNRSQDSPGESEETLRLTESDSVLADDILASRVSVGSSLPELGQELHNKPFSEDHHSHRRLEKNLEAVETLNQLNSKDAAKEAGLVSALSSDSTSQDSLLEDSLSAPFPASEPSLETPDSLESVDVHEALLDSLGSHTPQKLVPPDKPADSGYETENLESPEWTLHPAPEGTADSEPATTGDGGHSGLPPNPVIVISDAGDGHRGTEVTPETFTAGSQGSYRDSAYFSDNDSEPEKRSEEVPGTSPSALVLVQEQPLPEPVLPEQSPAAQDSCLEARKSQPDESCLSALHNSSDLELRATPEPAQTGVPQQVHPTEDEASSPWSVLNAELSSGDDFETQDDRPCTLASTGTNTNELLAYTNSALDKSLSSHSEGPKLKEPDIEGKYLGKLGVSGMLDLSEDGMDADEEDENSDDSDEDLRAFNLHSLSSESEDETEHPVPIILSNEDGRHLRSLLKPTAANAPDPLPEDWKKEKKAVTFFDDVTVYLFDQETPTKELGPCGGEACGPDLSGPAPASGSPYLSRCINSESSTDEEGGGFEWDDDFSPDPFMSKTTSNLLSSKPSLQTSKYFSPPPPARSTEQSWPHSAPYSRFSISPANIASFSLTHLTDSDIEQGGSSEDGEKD
UniProt P07948: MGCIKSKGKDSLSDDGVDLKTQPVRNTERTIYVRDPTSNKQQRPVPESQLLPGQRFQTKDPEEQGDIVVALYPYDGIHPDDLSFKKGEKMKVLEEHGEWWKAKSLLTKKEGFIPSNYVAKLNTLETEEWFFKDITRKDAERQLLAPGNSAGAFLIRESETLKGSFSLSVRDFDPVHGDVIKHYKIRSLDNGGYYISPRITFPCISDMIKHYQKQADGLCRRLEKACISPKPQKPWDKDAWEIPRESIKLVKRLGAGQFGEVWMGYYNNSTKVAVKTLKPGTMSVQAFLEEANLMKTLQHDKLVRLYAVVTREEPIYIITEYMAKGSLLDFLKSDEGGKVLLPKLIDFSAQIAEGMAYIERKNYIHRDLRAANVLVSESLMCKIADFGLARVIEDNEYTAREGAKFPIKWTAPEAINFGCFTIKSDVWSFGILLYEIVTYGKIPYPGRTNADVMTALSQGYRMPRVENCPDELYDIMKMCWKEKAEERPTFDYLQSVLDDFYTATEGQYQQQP
UniProt Q12851: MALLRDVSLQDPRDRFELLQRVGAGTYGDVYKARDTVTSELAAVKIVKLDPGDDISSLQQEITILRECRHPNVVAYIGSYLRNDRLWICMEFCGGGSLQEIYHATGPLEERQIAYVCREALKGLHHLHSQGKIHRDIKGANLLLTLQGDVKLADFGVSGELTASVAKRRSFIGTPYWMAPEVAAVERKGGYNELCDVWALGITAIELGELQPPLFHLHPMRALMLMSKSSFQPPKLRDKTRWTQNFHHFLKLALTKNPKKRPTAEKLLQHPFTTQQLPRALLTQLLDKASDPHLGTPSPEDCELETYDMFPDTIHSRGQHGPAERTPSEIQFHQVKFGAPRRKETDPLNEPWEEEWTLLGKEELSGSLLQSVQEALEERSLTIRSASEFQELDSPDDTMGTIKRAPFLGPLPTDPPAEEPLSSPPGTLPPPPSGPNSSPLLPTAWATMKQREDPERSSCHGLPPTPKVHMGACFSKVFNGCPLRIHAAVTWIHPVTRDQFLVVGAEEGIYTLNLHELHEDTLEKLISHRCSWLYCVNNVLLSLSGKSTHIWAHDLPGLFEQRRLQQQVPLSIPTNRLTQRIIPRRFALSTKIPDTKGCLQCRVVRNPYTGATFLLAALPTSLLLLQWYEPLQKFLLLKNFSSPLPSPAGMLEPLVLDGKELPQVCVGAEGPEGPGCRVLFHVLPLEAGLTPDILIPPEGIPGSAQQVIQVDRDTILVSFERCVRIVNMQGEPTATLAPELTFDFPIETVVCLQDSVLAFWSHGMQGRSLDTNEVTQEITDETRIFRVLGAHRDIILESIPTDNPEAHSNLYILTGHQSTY

Legend:
Test in all cases: kinase-Nluc reporter destabilization hit call (1 = scored as downregulated) (binary); higher = compound decreases kinase abundance
Conditions in all cases: K562; 2-18 h
[1] = biological target: IRAK3 (UniProt Q9Y616)
[2] = biological target: JAK1 (UniProt P23458)
[3] = biological target: LCK (UniProt P06239)
[4] = biological target: LIMK1 (UniProt P53667)
[5] = biological target: LIMK2 (UniProt P53671)
[6] = biological target: LMTK2 (UniProt Q8IWU2)
[7] = biological target: LYN (UniProt P07948)
[8] = biological target: MAP2K1 (UniProt Q02750)
[9] = biological target: MAP2K2 (UniProt P36507)
[10] = biological target: MAP4K2 (UniProt Q12851)

Measured: kinase-Nluc reporter destabilization hit call

CC(C)n1c(=O)n(C)c2cnc3cc(F)c(-c4ccc(OCCCN5CCCCC5)nc4)cc3c21 (10 µM)
inactive: [1] 0 | [2] 0 | [3] 0 | [4] 0 | [5] 0 | [6] 0 | [7] 0 | [8] 0 | [9] 0 | [10] 0

O=C(O)c1cc(N(Cc2ccccc2O)Cc2cc(O)ccc2O)ccc1O [Lavendustin A] (10 µM)
inactive: [1] 0 | [2] 0 | [3] 0 | [4] 0 | [5] 0 | [6] 0 | [7] 0 | [8] 0 | [9] 0 | [10] 0

N#Cc1ccc(-c2cnc3[nH]cc(NC(=O)c4cccnc4)c3c2)cc1 (10 µM)
inactive: [1] 0 | [2] 0 | [3] 0 | [4] 0 | [5] 0 | [6] 0 | [7] 0 | [8] 0 | [9] 0 | [10] 0

N#C/C(=C\c1ccc(O)c(O)c1)C(=O)O [Tyrphostin AG30] (10 µM)
inactive: [1] 0 | [2] 0 | [3] 0 | [4] 0 | [5] 0 | [6] 0 | [7] 0 | [8] 0 | [9] 0 | [10] 0

Nc1nc(NCCNc2ncc(-n3ccnc3)c(-c3ccc(Cl)cc3Cl)n2)ccc1[N+](=O)[O-] (2.5 µM)
inactive: [1] 0 | [2] 0 | [3] 0 | [4] 0 | [5] 0 | [6] 0 | [7] 0 | [8] 0 | [9] 0 | [10] 0

CC(C)n1c([C@H](C)Nc2ncnc(N)c2C#N)cc2cccc(-c3ccc(=O)n(C)c3)c2c1=O (10 µM)
inactive: [1] 0 | [2] 0 | [3] 0 | [4] 0 | [5] 0 | [6] 0 | [7] 0 | [8] 0 | [9] 0 | [10] 0

No new results follow: 2 of the compounds above.
N#Cc1ccc(-c2cnc3[nH]cc(NC(=O)c4cccnc4)c3c2)cc1 (10 µM)
inactive: [1] 0 | [2] 0 | [3] 0 | [4] 0 | [5] 0 | [6] 0 | [7] 0 | [8] 0 | [9] 0 | [10] 0

N#C/C(=C\c1ccc(O)c(O)c1)C(=O)O [Tyrphostin AG30] (10 µM)
inactive: [1] 0 | [2] 0 | [3] 0 | [4] 0 | [5] 0 | [6] 0 | [7] 0 | [8] 0 | [9] 0 | [10] 0

Next part

O=C(NCCN1CCOCC1)Nc1nc2ccc(Sc3nnc4ccc(-c5ccc(F)cc5)nn34)cc2s1 (10 µM)
inactive: [1] 0 | [2] 0 | [3] 0 | [4] 0 | [5] 0 | [6] 0 | [7] 0 | [8] 0 | [9] 0 | [10] 0

CC(C)[C@H](CO)Nc1nc(Nc2cccc(Cl)c2)c2ncn(C(C)C)c2n1 [Purvalanol A] (10 µM)
inactive: [1] 0 | [2] 0 | [3] 0 | [4] 0 | [5] 0 | [6] 0 | [7] 0 | [8] 0 | [9] 0 | [10] 0

CCCCCC(=O)N[C@@H](Cc1ccc(O)cc1)C(=O)OC (10 µM)
inactive: [1] 0 | [2] 0 | [3] 0 | [4] 0 | [5] 0 | [6] 0 | [7] 0 | [8] 0 | [9] 0 | [10] 0

COC(=O)Nc1ccc(-c2nc(N3CCOCC3)c3cnn(C4CCN(C(=O)OC)CC4)c3n2)cc1 (10 µM)
inactive: [1] 0 | [2] 0 | [3] 0 | [4] 0 | [5] 0 | [6] 0 | [7] 0 | [8] 0 | [9] 0 | [10] 0

COc1cc(N2CCOCC2)ccc1Nc1ncc(F)c(Nc2ccccc2NS(C)(=O)=O)n1 (10 µM)
inactive: [1] 0 | [2] 0 | [3] 0 | [4] 0 | [5] 0 | [6] 0 | [7] 0 | [8] 0 | [9] 0 | [10] 0

Cc1cc(O)c2c(c1)C(=O)c1cccc(O)c1C2=O [Chrysophanol] (2 µM)
inactive: [1] 0 | [2] 0 | [3] 0 | [4] 0 | [5] 0 | [6] 0 | [7] 0 | [8] 0 | [9] 0 | [10] 0

CC(Cc1ccc(O)c(O)c1)C(C)Cc1ccc(O)c(O)c1 (stereo not given) [Nordihydroguaiaretic acid] (2.5 µM)
inactive: [1] 0 | [2] 0 | [3] 0 | [4] 0 | [5] 0 | [6] 0 | [7] 0 | [8] 0 | [9] 0 | [10] 0

C=CC(=O)Nc1cccc(Oc2nc(Nc3ccc(N4CCN(C)CC4)c(F)c3)nc3[nH]ccc23)c1 [Avitinib (maleate)] (2.5 µM)
inactive: [1] 0 | [2] 0 | [3] 0 | [4] 0 | [5] 0 | [6] 0 | [7] 0 | [8] 0 | [9] 0 | [10] 0

NC[C@@](O)(c1ccc(Cl)cc1)c1ccc(-c2cn[nH]c2)cc1 (10 µM)
inactive: [1] 0 | [2] 0 | [3] 0 | [4] 0 | [5] 0 | [6] 0 | [7] 0 | [8] 0 | [9] 0 | [10] 0

COc1cc2c(cc1OC)/C(=C/c1ccc(O)cc1)C(=O)N2 (10 µM)
inactive: [1] 0 | [2] 0 | [3] 0 | [4] 0 | [5] 0 | [6] 0 | [7] 0 | [8] 0 | [9] 0 | [10] 0

Cc1ccc(C(=O)NC2CC2)cc1-n1ncc(C(=O)c2cccc(C#N)c2)c1N [Acumapimod] (10 µM)
inactive: [1] 0 | [2] 0 | [3] 0 | [4] 0 | [5] 0 | [6] 0 | [7] 0 | [8] 0 | [9] 0 | [10] 0

CC(Sc1nc2c(cnn2-c2cccc(Cl)c2)c(=O)[nH]1)C(N)=O (stereo not given) (10 µM)
inactive: [1] 0 | [2] 0 | [3] 0 | [4] 0 | [5] 0 | [6] 0 | [7] 0 | [8] 0 | [9] 0 | [10] 0

O=c1[nH]ccc2nc(-c3ccc(CN4CCC(c5nc(-c6ccccn6)n[nH]5)CC4)cc3)c(-c3ccccc3)cc12 (10 µM)
inactive: [1] 0 | [2] 0 | [3] 0 | [4] 0 | [5] 0 | [6] 0 | [7] 0 | [8] 0 | [9] 0 | [10] 0

CO[C@H]1CC[C@H](N2C(=O)CNc3ncc(-c4ccc(C(C)(C)O)nc4)nc32)CC1 (2.5 µM)
inactive: [1] 0 | [2] 0 | [3] 0 | [4] 0 | [5] 0 | [6] 0 | [7] 0 | [8] 0 | [9] 0 | [10] 0

O=C1NC(=O)/C(=C\c2c[nH]c(=O)c(-c3ccc(N4CCNCC4)nc3)c2)S1 [Protein kinase inhibitors 1 hydrochloride] (10 µM)
inactive: [1] 0 | [2] 0 | [3] 0 | [4] 0 | [5] 0 | [6] 0 | [7] 0 | [8] 0 | [9] 0 | [10] 0

COC(=O)[C@H](CCSC)NC(=O)c1ccc(NC[C@@H](N)CS)cc1-c1ccccc1 [FTI-277 (hydrochloride)] (10 µM)
inactive: [1] 0 | [2] 0 | [3] 0 | [4] 0 | [5] 0 | [6] 0 | [7] 0 | [8] 0 | [9] 0 | [10] 0

C=CC(=O)N1CCN(C(=O)CNc2cc(I)c(Cl)cc2O)CC1 [K-Ras(G12C) inhibitor 12] (10 µM)
inactive: [1] 0 | [2] 0 | [3] 0 | [4] 0 | [5] 0 | [6] 0 | [7] 0 | [8] 0 | [9] 0 | [10] 0

Cc1cnc(NC(=O)c2cc(Oc3cnc(C(=O)N(C)C)nc3)c3cc(C)oc3c2)cn1 (10 µM)
inactive: [1] 0 | [2] 0 | [3] 0 | [4] 0 | [5] 0 | [6] 0 | [7] 0 | [8] 0 | [9] 0 | [10] 0

C=CC(=O)N1CCC[C@@H](n2nc(-c3ccc(Oc4ccccc4)cc3)c3c(N)n[nH]c(=O)c32)C1 [BTK inhibitor 17] (10 µM)
inactive: [1] 0 | [2] 0 | [3] 0 | [4] 0 | [5] 0 | [6] 0 | [7] 0 | [8] 0 | [9] 0 | [10] 0

Cc1nn(C)cc1-c1nc2c(N3CCN(Cc4ccc(Cl)cc4)CC3)c(Cl)cnc2[nH]1 (10 µM)
inactive: [1] 0 | [2] 0 | [3] 0 | [4] 0 | [5] 0 | [6] 0 | [7] 0 | [8] 0 | [9] 0 | [10] 0

COc1ccc(S(=O)(=O)Nc2cc(-c3c(O)ccc4ccccc34)c(O)c3ccccc23)cc1 (10 µM)
inactive: [1] 0 | [2] 0 | [3] 0 | [4] 0 | [5] 0 | [6] 0 | [7] 0 | [8] 0 | [9] 0 | [10] 0

Nc1ncc(C(=O)NC2CN(C(=O)C3CC3)C2)c2ccc(-c3cccc(F)c3)nc12 (2 µM)
inactive: [1] 0 | [2] 0 | [3] 0 | [4] 0 | [5] 0 | [6] 0 | [7] 0 | [8] 0 | [9] 0 | [10] 0

Nc1nccc(-c2c(-c3ccc(F)cc3)ncn2C2CCCCC2)n1 (10 µM)
inactive: [1] 0 | [2] 0 | [3] 0 | [4] 0 | [5] 0 | [6] 0 | [7] 0 | [8] 0 | [9] 0 | [10] 0
